Experimental data taken from patent US11672766B2, “Therapeutic cationic peptides and unimolecular nanoparticles for efficient delivery thereof” (Wisconsin Alumni Research Foundation, priority 2017, dated 2023).
At least one compound was matched to its structure with a doubt left.

How the values were obtained:
MCF7 cells [1] = test: Oxygen consumption rate (OCR), Seahorse XF96; type: cell-based; details: TEPP-46 vs DMSO, DCA treated
Experimental: (§1) The OCR was measured in an XF96 extracellular analyzer (Seahorse Bioscience). 2×10^4 cells per well were seeded into the 96-well plate and incubated in DMEM media with 10% FBS at 37° C. overnight. Next day, the media was changed to analysis media containing 10 mM glucose. The cells were incubated in a CO2-free incubator at 37° C. for 1 hour. Cells were sequentially exposed to oligomycin ([…] FCCP (0.5 μM) and rotenone (0.5 μM). Each point in traces represent the average of measurement from six different wells.

MDA-MB-231 cells [2] = test: Oxygen consumption rate (OCR), Seahorse XF96; type: cell-based, human; details: TEPP-46 vs DMSO, DCA treated
Experimental: as §1

MCF7 cells [3] = test: Lactate production normalized to cell numbers; type: cell-based; details: TEPP-46 vs DMSO, DCA treated
MDA-MB-231 cells [4] = test: Lactate production normalized to cell numbers; type: cell-based, human; details: TEPP-46 vs DMSO, DCA treated
MCF7 cells [5] = test: Western blot analysis of phosphorylated PDH and total PDH; type: cell-based
MDA-MB-231 cells [6] = test: as above; type: cell-based, human

O=C(O)C(Cl)Cl [DCA, dichloroacetate]
OCR (MCF7 cells [1]): increasing oxidative phosphorylation | OCR (MDA-MB-231 cells [2]): increasing oxidative phosphorylation | lactate production (MCF7 cells [3]): decrease PDH phosphorylation and lactate production | lactate production (MDA-MB-231 cells [4]): decrease PDH phosphorylation and lactate production | PDH phosphorylation (MCF7 cells [5]): decrease PDH phosphorylation | PDH phosphorylation (MDA-MB-231 cells [6]): decrease PDH phosphorylation
